From the supplement of paper PMC10849652
The other results are listed elsewhere or left out. Residues, ends and D or L forms follow the SMILES beside them. *: point of attachment. Cbz = O=C(OCc1ccccc1)*

The chains behind the UniProt entries cited, without tags or fusion partners. Where a name states a change or a piece, a line headed by the entry shows the natural chain unless it says otherwise.
UniProt P53567: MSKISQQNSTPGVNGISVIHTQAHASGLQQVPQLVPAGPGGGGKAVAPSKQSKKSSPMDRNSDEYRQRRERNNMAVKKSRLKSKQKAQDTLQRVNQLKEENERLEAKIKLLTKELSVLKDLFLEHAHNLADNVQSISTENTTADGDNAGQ
UniProt Q7Z7K6: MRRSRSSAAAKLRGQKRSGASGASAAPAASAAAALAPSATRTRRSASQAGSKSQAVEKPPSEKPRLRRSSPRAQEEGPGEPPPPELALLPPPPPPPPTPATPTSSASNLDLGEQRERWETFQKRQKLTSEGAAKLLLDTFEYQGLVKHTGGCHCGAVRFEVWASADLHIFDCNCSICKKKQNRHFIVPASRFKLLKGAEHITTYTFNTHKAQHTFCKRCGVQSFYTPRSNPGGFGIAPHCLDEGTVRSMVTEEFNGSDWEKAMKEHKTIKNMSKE
UniProt Q9H211: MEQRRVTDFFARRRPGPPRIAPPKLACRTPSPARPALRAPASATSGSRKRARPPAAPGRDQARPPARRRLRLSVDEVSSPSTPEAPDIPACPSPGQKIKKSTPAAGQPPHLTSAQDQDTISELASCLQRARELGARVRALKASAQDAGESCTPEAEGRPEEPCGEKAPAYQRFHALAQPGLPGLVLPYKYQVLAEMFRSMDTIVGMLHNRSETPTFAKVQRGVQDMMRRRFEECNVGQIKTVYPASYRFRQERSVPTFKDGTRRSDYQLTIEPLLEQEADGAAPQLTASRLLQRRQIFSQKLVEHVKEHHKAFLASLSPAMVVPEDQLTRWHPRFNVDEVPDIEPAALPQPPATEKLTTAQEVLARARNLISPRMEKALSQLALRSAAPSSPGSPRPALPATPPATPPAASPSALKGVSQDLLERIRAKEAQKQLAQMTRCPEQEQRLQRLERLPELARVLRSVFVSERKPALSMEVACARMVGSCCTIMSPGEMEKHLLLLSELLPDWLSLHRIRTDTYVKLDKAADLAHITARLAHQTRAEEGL
UniProt P33151: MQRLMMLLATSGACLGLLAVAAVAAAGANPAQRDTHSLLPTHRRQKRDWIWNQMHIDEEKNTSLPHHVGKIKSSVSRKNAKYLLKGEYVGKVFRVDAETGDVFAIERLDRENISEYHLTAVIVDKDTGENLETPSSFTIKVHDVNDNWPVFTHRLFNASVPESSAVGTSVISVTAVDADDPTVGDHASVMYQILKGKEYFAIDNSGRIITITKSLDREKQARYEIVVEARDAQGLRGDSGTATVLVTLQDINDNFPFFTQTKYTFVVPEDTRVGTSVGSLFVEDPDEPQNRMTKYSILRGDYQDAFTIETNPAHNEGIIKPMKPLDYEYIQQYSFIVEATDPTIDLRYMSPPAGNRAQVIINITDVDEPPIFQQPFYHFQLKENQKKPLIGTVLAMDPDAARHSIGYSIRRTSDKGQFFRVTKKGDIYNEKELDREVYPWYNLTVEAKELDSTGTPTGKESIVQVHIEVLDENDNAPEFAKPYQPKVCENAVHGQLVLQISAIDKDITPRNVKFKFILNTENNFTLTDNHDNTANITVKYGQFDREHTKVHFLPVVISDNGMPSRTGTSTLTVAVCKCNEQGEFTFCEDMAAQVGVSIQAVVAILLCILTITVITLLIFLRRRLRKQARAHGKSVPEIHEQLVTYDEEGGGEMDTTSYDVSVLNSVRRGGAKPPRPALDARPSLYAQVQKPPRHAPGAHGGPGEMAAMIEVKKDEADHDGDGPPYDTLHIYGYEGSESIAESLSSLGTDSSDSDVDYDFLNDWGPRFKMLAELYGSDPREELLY
UniProt Q9Y4F5: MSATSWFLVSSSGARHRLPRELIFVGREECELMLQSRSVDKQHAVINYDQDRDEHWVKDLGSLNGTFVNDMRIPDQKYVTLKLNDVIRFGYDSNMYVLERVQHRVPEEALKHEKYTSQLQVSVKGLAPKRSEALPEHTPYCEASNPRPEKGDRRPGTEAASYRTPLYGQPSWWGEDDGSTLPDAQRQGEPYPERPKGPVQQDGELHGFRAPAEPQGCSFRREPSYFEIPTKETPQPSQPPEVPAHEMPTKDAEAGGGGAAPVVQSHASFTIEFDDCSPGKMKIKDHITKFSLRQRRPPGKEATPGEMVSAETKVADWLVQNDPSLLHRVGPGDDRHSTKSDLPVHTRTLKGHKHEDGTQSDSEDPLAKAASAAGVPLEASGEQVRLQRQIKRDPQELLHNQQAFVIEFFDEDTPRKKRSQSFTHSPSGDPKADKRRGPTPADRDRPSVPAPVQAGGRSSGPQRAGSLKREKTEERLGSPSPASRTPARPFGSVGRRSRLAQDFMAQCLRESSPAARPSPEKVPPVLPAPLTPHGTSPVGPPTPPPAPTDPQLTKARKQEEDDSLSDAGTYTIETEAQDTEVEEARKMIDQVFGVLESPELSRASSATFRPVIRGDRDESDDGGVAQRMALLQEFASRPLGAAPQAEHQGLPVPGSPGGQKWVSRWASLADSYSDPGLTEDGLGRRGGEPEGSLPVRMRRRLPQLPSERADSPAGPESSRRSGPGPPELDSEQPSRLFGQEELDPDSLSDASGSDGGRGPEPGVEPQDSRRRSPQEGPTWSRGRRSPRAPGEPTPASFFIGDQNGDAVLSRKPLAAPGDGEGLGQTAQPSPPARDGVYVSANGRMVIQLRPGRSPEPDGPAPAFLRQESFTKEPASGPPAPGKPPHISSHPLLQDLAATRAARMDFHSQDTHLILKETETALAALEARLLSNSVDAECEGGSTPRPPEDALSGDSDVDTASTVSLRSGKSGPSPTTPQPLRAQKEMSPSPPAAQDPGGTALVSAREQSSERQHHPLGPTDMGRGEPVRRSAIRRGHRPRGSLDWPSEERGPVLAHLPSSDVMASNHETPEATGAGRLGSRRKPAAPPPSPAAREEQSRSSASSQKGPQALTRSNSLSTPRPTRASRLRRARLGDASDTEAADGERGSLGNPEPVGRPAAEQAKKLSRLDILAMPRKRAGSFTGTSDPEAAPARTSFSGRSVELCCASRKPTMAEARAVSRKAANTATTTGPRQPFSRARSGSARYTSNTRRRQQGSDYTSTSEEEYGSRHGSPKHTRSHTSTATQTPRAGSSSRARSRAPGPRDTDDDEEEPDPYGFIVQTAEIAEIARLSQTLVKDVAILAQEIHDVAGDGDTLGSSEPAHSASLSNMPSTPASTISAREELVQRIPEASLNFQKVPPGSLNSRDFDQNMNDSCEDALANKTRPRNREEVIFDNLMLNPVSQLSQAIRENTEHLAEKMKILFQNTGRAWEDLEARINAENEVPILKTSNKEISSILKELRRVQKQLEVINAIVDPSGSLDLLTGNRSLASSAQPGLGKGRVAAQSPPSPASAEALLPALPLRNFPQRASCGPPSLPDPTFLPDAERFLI
UniProt A8MT69: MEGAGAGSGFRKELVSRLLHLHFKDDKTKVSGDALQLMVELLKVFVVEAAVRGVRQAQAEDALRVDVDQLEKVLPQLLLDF
UniProt Q9UKI2, whole entry, looked up: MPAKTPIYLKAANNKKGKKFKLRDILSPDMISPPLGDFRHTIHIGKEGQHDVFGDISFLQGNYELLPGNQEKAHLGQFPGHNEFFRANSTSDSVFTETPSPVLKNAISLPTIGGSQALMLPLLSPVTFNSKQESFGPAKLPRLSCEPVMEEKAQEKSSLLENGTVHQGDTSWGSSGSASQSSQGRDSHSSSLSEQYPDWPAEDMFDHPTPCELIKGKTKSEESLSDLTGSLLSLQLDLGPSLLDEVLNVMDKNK
UniProt Q9BSY4: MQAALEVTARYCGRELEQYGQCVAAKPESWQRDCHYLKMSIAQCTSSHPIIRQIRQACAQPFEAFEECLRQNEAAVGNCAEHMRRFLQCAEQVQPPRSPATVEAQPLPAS

Legend:
Assay in all cases: log2 fold change, soluble protein after heating vs DMSO (PISA); higher = thermal stabilisation; K562 cells, 10 uM, 30 min; active = over 0.2 and 3.5 SD of the protein, either way, in both replicates (recomputed)
[1] = compound: C/C(=N\NC(=O)C1=CC(=CC=C1)S(=O)(=O)N2CCOCC2)/C3=C(C=CC(=C3)Cl)O
Outline: (§1)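 Quantification of soluble protein used TMTpro 16plex LC-MS/MS, with channel sums equalised. Samples were the supernatant after 21,000xg for 90 min of pooled aliquots from K562 cells (2×10^6 cells/mL) treated with 10 μM compound for 30 min, heated for 3 min over 48°C-58°C, and extracted in PBS with 0.5% NP-40 at 4°C. Values, from duplicates, describe thermal stability against control samples on a log2 fold-change scale.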

[2] = compound: C1=CC(=C(C=C1Cl)C2=NC3=NC=CN=C3C(=N2)NC4=CC=NC=C4)F
Outline: as §1

[3] = compound: C1=CC2=C(C=CC(=C2)/C=C\3/C(=O)NC(=NCC4=CC=CS4)S3)N=C1
Outline: as §1

[4] = compound: C1=CC2=NC=CN=C2C=C1/C=C/3\C(=O)NC(=O)S3
Outline: as §1

[5] = compound: C1=CC=C2C(=C1)C3=NNC4=CC=CC(=C43)C2=O
Outline: as §1

[6] = compound: C=CC(=O)N1CCC[C@@H](n2nc(-c3ccc(Oc4ccccc4)cc3)c3c(N)ncnc32)C1 [ibrutinib]
Outline: as §1

[7] = compound: CC(=O)c1cnc2ccc(-c3cc(Cl)c(O)c(Cl)c3)nc2c1N[C@H]1CC[C@H](CN(C)C)CC1
Outline: as §1

[8] = compound: CC(C)(O)CC(=O)NCCn1ccc2ncnc(Nc3ccc(Oc4cccc(C(F)(F)F)c4)c(Cl)c3)c21
Outline: as §1

[9] = compound: C1=CC=C(C=C1)C2=NC(=C(N2)C3=CC=NC=C3)C4=CC(=C(C=C4)Cl)O
Outline: as §1

[10] = compound: CC(C)(C)Cn1c(N)nc2ccc(-c3[nH]c(C(C)(C)C)nc3-c3ccc(F)cc3)nc21 [ralimetinib]
Outline: as §1

[11] = compound: CC(C)C[C@@H](C=O)NC(=O)[C@H](CC(C)C)NC(=O)[C@H](CC(C)C)NC(=O)OCc1ccccc1
Outline: as §1

[12] = compound: CC1=C(C(CC(=O)N1)C2=CC=C(C=C2)C(F)(F)F)C(=O)NC3=C(C=C4C(=C3)C=NN4)F
Outline: as §1

[13] = compound: C#Cc1cccc(Nc2ncnc3cc(OCCOC)c(OCCOC)cc23)c1 [erlotinib]
Outline: as §1

[14] = compound: C1=CC(=CC=C1C2=NC3=C(N2)C=C(C=C3)C(=O)N)OC4=CC=C(C=C4)Cl
Outline: as §1

[15] = compound: CC(C)C1=C2N=C(C=C(N2N=C1)NCC3=CC=CC=C3)NCCCCCCN
Outline: as §1

[16] = compound: C1COCCN1CCN2C3=CC=CC=C3N=C2NC(=O)C4=CC(=CC=C4)[N+](=O)[O-] [IRAK-1-4 Inhibitor I]
Outline: as §1

[17] = compound: CC(C)N(C[C@H]1O[C@@H](n2cnc3c(N)ncnc32)[C@H](O)[C@@H]1O)[C@H]1C[C@@H](CCc2nc3cc(C(C)(C)C)ccc3[nH]2)C1 [pinometostat]
Outline: as §1

CFAP47 (UniProt Q6ZTR5) was tested, and the log2 fold change [1] was active: -0.734, the log2 fold change [2] was inactive: 0.053 and the log2 fold change [3] was inactive: 0.355. The log2 fold change [4] was inactive: -0.123, the log2 fold change [5] was inactive: 0.132 and the log2 fold change [6] was inactive: -0.109. The log2 fold change [7] was inactive: 0.153 and the log2 fold change [8] was inactive: 0.006.

For CEBPG (UniProt P53567), the log2 fold change [1] was inactive: -0.4, the log2 fold change [3] was inactive: 0.022 and the log2 fold change [9] was inactive: -0.318. The log2 fold change [5] was inactive: -0.019, the log2 fold change [7] was inactive: 0.026 and the log2 fold change [10] was inactive: 0.018. The log2 fold change [11] was inactive: -0.092 and the log2 fold change [12] was inactive: -0.088.

In the case of CENPV (UniProt Q7Z7K6), the log2 fold change [2] is reported as inactive: -0.51, the log2 fold change [9] is reported as inactive: -0.032 and the log2 fold change [10] is reported as inactive: 0.269. The log2 fold change [8] was inactive: 0.323 and the log2 fold change [11] was inactive: 0.132.

For CDT1 (UniProt Q9H211), the log2 fold change [2] was inactive: -0.179 and the log2 fold change [8] was inactive: 0.143.

For CDH5 (UniProt P33151), the log2 fold change [13] was inactive: -0.227, the log2 fold change [2] was inactive: 0.086 and the log2 fold change [14] was inactive: -0.052. For the same target, the log2 fold change [8] was inactive: 0.148 and the log2 fold change [15] was inactive: 0.2.

In the case of CEP170B (UniProt Q9Y4F5), the log2 fold change [1] is reported as inactive: 0.036, the log2 fold change [2] is reported as inactive: -0.288 and the log2 fold change [3] is reported as inactive: 0.01. For the same target, the log2 fold change [4] was inactive: -0.206, the log2 fold change [9] was inactive: -0.018 and the log2 fold change [5] was inactive: -0.098. For the same target, the log2 fold change [16] was inactive: -0.125, the log2 fold change [6] was inactive: -0.001 and the log2 fold change [7] was inactive: -0.251. For the same target, the log2 fold change [10] was inactive: 0.001, the log2 fold change [8] was inactive: -0.017 and the log2 fold change [11] was inactive: -0.009. The log2 fold change [17] was inactive: 0.307.

With CENPX (UniProt A8MT69) the log2 fold change [13] was inactive: 0.242, the log2 fold change [14] was inactive: -0.099 and the log2 fold change [15] was inactive: -0.222.

With CDC42EP3 (UniProt Q9UKI2) the log2 fold change [13] was inactive: -0.068, the log2 fold change [2] was inactive: -0.01 and the log2 fold change [14] was inactive: 0.305. The log2 fold change [8] was inactive: 0.006 and the log2 fold change [15] was inactive: -0.342.

CHCHD5 (UniProt Q9BSY4) was tested, and the log2 fold change [13] was inactive: 0.038, the log2 fold change [14] was inactive: 0.115 and the log2 fold change [4] was inactive: 0.086. The log2 fold change [9] was inactive: -0.174, the log2 fold change [16] was inactive: -0.17 and the log2 fold change [6] was inactive: 0.048. The log2 fold change [10] was inactive: -0.098, the log2 fold change [15] was inactive: 0.182 and the log2 fold change [11] was inactive: -0.084. For the same target, the log2 fold change [17] was inactive: 0.131 and the log2 fold change [12] was inactive: 0.036.
